Earlier results in patent US20030053950A1, “Individualization of therapy with hyperlipidemia agents” (McGill University, priority 2001, published 2003).
At least one compound was matched to its structure with a doubt left.

Conditions: cited from earlier work

Compound | LDL cholesterol reduction (0.3 and 0.4 mg per day) | fibrinogen levels (human, in vivo) | uric acid levels (human, in vivo)
COCc1c(C(C)C)nc(C(C)C)c(/C=C/[C@@H](O)C[C@@H](O)CC(=O)O)c1-c1ccc(F)cc1 [Cerivastatin] | 28% |  | 
CC(C)OC(=O)C(C)(C)Oc1ccc(C(=O)c2ccc(Cl)cc2)cc1 [fenofibrate] |  | reduce | reduce
